{"source": "PubChem BioAssay AID1159579, Peter MacCallum Cancer Centre – 2015", "test": "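Follow-up screen seeking modulators of motility in lymphatic endothelial cells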 (follow-up of hits)", "system": "human dermal lymphatic endothelial cells", "knock-down reagent": "single siRNA against human genes, 25 nM", "measurement": "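Scratch wound imaging measuring area filled by moving cells plus nuclei number, averaged over two wells and scaled to mock-transfected controls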", "direction": "migration relative to mock: higher = more migration into the scratch; mean nuclei count: higher = more cells remaining", "hit rule": "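Called active when the migration ratio is 0.6 or lower (impaired) or 1.3 or higher (accelerated), but inactive whenever the mean nuclei count falls under 3300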", "meaning of the calls": "active = migration changed (impaired or accelerated); inactive = no migration change, or too few cells", "note": "In all, the deposit lists about 2,000 reagents; below is an unselected part. Of all reagents, 549 (27%) are marked active. 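Some migration ratios are negative; siRNAs with too few cells are inactive whatever their migration ratio.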 Entries without a mark were called inactive. Reagents against one gene are numbered here. Not stated in the record: the time to read-out."}
{"target": "FAM222B (family with sequence similarity 222 member B)", "reagent no.": 1, "migration relative to mock": 0.71, "migration and cell number class": "no change in migration or cell number", "mean nuclei count": 4042}
{"target": "FAM222B (family with sequence similarity 222 member B)", "reagent no.": 2, "migration relative to mock": 1.1, "migration and cell number class": "no change in migration or cell number", "mean nuclei count": 5862}
{"target": "FAM222B (family with sequence similarity 222 member B)", "reagent no.": 3, "migration relative to mock": 0.79, "migration and cell number class": "no change in migration or cell number", "mean nuclei count": 6020}
{"target": "FAM222B (family with sequence similarity 222 member B)", "reagent no.": 4, "migration relative to mock": 0.82, "migration and cell number class": "no change in migration or cell number", "mean nuclei count": 6012}
{"target": "CD8A (CD8 subunit alpha)", "reagent no.": 1, "migration relative to mock": 0.62, "migration and cell number class": "no change in migration or cell number", "mean nuclei count": 4668}
{"target": "CD8A (CD8 subunit alpha)", "reagent no.": 2, "migration relative to mock": 0.96, "migration and cell number class": "no change in migration or cell number", "mean nuclei count": 6114}
{"target": "CD8A (CD8 subunit alpha)", "reagent no.": 3, "migration relative to mock": "0.58 (active)", "migration and cell number class": "migration reduced", "mean nuclei count": 5311}
{"target": "CD8A (CD8 subunit alpha)", "reagent no.": 4, "migration relative to mock": -1.23, "migration and cell number class": "too few cells; migration not scored", "mean nuclei count": 2302}
{"target": "GPR152 (G protein-coupled receptor 152)", "reagent no.": 1, "migration relative to mock": "0.4 (active)", "migration and cell number class": "migration reduced", "mean nuclei count": 4998}
{"target": "GPR152 (G protein-coupled receptor 152)", "reagent no.": 2, "migration relative to mock": 0.8, "migration and cell number class": "no change in migration or cell number", "mean nuclei count": 5540}
{"target": "GPR152 (G protein-coupled receptor 152)", "reagent no.": 3, "migration relative to mock": "0.53 (active)", "migration and cell number class": "migration reduced", "mean nuclei count": 4162}
{"target": "GPR152 (G protein-coupled receptor 152)", "reagent no.": 4, "migration relative to mock": "0.03 (active)", "migration and cell number class": "migration reduced", "mean nuclei count": 3434}
{"target": "TES (testin LIM domain protein)", "reagent no.": 1, "migration relative to mock": "0.36 (active)", "migration and cell number class": "migration reduced", "mean nuclei count": 4864}
{"target": "TES (testin LIM domain protein)", "reagent no.": 2, "migration relative to mock": 0.88, "migration and cell number class": "no change in migration or cell number", "mean nuclei count": 5566}
{"target": "TES (testin LIM domain protein)", "reagent no.": 3, "migration relative to mock": 1.08, "migration and cell number class": "no change in migration or cell number", "mean nuclei count": 6044}
{"target": "TES (testin LIM domain protein)", "reagent no.": 4, "migration relative to mock": "0.04 (active)", "migration and cell number class": "migration reduced", "mean nuclei count": 3600}

Records above whose gene name begins with G or g:
{"target": "GPR152 (G protein-coupled receptor 152)", "reagent no.": 1, "migration relative to mock": "0.4 (active)", "migration and cell number class": "migration reduced", "mean nuclei count": 4998}
{"target": "GPR152 (G protein-coupled receptor 152)", "reagent no.": 2, "migration relative to mock": 0.8, "migration and cell number class": "no change in migration or cell number", "mean nuclei count": 5540}
{"target": "GPR152 (G protein-coupled receptor 152)", "reagent no.": 3, "migration relative to mock": "0.53 (active)", "migration and cell number class": "migration reduced", "mean nuclei count": 4162}
{"target": "GPR152 (G protein-coupled receptor 152)", "reagent no.": 4, "migration relative to mock": "0.03 (active)", "migration and cell number class": "migration reduced", "mean nuclei count": 3434}

Continued.
{"target": "HS3ST1 (heparan sulfate-glucosamine 3-sulfotransferase 1)", "reagent no.": 1, "migration relative to mock": 1.08, "migration and cell number class": "no change in migration or cell number", "mean nuclei count": 6084}
{"target": "HS3ST1 (heparan sulfate-glucosamine 3-sulfotransferase 1)", "reagent no.": 2, "migration relative to mock": "0.4 (active)", "migration and cell number class": "migration reduced", "mean nuclei count": 5684}
{"target": "HS3ST1 (heparan sulfate-glucosamine 3-sulfotransferase 1)", "reagent no.": 3, "migration relative to mock": "0.14 (active)", "migration and cell number class": "migration reduced", "mean nuclei count": 4227}
{"target": "HS3ST1 (heparan sulfate-glucosamine 3-sulfotransferase 1)", "reagent no.": 4, "migration relative to mock": 0.7, "migration and cell number class": "no change in migration or cell number", "mean nuclei count": 6080}
{"target": "LRPPRC (leucine rich pentatricopeptide repeat containing)", "reagent no.": 1, "migration relative to mock": 0.87, "migration and cell number class": "no change in migration or cell number", "mean nuclei count": 5592}
{"target": "LRPPRC (leucine rich pentatricopeptide repeat containing)", "reagent no.": 2, "migration relative to mock": "0.42 (active)", "migration and cell number class": "migration reduced", "mean nuclei count": 3691}
{"target": "LRPPRC (leucine rich pentatricopeptide repeat containing)", "reagent no.": 3, "migration relative to mock": 1.02, "migration and cell number class": "no change in migration or cell number", "mean nuclei count": 6274}
{"target": "LRPPRC (leucine rich pentatricopeptide repeat containing)", "reagent no.": 4, "migration relative to mock": 0.9, "migration and cell number class": "no change in migration or cell number", "mean nuclei count": 5206}
